Results are given in words; binding and its absence hold for the method and conditions named. Some binding calls cover weakened binding; strength is not graded here.
Biological target: vimentin (mouse) (UniProt P20152)
Experiment: confocal microscopy of PKC-θ and vimentin staining in Tregs after 5 minutes of anti-CD3/CD28 mAb activation

By UniProt entry, the sequences of proteins in these tests, tags left out. Where a name states a change or a piece, a line headed by the entry shows the natural chain unless it says otherwise.
UniProt P20152: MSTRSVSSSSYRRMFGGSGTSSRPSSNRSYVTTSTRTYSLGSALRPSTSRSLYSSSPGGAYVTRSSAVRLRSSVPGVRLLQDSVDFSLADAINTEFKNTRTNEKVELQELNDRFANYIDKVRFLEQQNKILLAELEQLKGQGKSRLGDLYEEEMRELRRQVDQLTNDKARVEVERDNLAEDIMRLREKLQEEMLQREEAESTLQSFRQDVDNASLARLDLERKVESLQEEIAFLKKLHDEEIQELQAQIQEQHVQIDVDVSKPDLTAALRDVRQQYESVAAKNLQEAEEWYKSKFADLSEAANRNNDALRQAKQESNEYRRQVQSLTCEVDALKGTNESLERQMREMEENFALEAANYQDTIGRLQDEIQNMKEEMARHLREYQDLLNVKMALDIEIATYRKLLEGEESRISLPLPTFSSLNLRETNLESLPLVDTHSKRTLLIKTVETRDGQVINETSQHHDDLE
UniProt Q02111: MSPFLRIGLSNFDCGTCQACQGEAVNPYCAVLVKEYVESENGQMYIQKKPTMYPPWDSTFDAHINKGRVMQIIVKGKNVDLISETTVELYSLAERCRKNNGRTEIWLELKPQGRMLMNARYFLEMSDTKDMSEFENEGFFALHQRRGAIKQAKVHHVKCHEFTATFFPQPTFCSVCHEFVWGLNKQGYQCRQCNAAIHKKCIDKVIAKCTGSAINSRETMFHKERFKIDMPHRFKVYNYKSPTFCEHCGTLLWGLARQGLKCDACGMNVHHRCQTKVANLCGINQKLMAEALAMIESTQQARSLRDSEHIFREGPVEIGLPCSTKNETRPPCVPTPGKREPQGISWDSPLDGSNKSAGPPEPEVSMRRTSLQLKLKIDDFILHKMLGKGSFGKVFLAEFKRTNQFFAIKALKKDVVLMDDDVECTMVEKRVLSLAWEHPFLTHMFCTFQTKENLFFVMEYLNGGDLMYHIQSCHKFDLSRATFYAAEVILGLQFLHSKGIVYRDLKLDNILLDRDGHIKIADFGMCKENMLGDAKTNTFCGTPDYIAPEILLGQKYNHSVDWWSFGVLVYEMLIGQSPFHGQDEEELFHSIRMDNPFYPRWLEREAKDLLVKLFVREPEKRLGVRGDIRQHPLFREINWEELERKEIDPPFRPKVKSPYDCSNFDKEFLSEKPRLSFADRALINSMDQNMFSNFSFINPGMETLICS

In the case of “Protein kinase C-theta (PKC-θ) (from UniProt Q02111 1-707) (enzyme)”, the binding is reported as “binds”.
